Data as given in paper PMC9396447.
Results are given in words; binding and its absence hold for the method and conditions named. Binding seen in cells or lysates may run through a third protein. Some binding calls cover weakened binding; strength is not graded here.

Amino acid sequences for entries named in this document (tags omitted). A change or cut given only in a name is not applied to a line headed by its entry. Residues count along the entry.
UniProt Q16595: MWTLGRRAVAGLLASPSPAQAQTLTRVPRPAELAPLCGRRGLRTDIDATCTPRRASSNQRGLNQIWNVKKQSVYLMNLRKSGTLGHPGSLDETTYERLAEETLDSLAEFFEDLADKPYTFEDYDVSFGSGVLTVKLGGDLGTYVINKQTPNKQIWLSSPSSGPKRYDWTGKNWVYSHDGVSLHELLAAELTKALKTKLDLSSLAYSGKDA
human frataxin intermediate form (6XHis-frataxin^42–210): residues 42-210 of Q16595
human mature frataxin (frataxin^81–210-6XHis): residues 81-210 of Q16595
UniProt Q9D0K2, residues 40-520: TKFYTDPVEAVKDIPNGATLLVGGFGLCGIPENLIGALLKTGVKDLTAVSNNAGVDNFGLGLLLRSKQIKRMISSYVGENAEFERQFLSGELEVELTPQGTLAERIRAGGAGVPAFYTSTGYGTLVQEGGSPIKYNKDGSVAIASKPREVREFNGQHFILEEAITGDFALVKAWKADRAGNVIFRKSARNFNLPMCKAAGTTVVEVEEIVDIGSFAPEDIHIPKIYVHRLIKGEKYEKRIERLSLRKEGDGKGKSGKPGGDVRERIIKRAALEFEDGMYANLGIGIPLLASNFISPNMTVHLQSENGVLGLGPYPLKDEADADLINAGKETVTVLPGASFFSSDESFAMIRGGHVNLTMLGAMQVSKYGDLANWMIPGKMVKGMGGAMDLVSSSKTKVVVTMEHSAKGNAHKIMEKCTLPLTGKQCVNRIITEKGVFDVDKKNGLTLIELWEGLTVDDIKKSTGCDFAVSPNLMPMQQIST

Assays:
[1] = target: T1, frataxin (endogenous, mouse cortex / cultured cortical neurons) (mouse (endogenous in mouse cortex)) (UniProt O35943); assay: co-IP; cultured mouse cortical neuronal lysates; anti-frataxin antibody (Abcam) overnight at 4°C, protein G beads 2 h at 4°C, four washes with RIPA buffer; blot; control IgG
T1 sequence: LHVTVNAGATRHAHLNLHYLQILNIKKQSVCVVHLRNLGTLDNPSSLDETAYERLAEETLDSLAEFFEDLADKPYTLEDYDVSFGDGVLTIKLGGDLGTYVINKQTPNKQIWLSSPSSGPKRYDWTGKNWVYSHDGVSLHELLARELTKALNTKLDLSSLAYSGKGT

[2] = target: human mature frataxin (frataxin^81–210-6XHis) (human) (UniProt Q16595); assay: pull-down; purified recombinant 6XHis-tagged human frataxin forms as bait, mouse cortical homogenates; blot for OXCT1; beads-only control; only the target purified
[3] = target: human frataxin intermediate form (6XHis-frataxin^42–210) (human) (UniProt Q16595); assay: as above
[4] = target: T1, frataxin (endogenous, mouse cortex / cultured cortical neurons) (mouse (endogenous in mouse cortex)); assay: co-IP; mouse cortical (brain) homogenates; anti-frataxin antibody (Abcam) overnight at 4°C, protein G beads 2 h at 4°C, four washes with RIPA buffer; blot; control IgG

Measured: binding

3-Oxoacid CoA-Transferase 1 (OXCT1), endogenous, mouse cortex / cultured cortical neurons (from UniProt Q9D0K2 40-520) (enzyme)
binds: all assays above
